Experimental data published in article PMC7867191.

Assays:
Assay in all cases: two-hybrid; yeast strain Y2H Gold; pGBKT7 and pGADT7 fusions; growth on SD/-Trp-Leu-His and SD/-Trp-Leu-His-Ade dropout media
[1] = target: T1, MORF4, yeast two-hybrid fusion (Arabidopsis thaliana) (UniProt O48582)
T1 sequence: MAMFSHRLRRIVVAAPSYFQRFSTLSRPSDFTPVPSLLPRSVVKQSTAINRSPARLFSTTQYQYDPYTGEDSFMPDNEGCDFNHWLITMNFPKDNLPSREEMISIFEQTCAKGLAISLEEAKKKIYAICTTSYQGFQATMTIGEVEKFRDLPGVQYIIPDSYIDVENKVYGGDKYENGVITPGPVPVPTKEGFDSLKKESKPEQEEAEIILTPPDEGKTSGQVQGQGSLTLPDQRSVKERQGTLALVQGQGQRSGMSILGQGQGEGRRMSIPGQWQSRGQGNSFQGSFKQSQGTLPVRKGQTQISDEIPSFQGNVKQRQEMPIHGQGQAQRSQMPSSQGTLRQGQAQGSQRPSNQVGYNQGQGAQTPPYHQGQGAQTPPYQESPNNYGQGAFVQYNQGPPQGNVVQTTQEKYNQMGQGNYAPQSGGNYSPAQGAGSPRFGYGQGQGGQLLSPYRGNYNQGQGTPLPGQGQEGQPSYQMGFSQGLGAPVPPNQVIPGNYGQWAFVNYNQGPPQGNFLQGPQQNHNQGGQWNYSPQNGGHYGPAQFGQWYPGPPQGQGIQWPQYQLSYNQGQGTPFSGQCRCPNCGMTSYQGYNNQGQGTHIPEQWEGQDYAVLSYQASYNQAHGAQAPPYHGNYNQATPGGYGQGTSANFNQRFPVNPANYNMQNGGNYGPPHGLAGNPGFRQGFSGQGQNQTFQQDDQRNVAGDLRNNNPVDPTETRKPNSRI

[2] = target: T2, multiple organellar RNA editing factor 8 (MORF8), yeast two-hybrid fusion (Arabidopsis thaliana) (UniProt Q9LKA5)
T2 sequence: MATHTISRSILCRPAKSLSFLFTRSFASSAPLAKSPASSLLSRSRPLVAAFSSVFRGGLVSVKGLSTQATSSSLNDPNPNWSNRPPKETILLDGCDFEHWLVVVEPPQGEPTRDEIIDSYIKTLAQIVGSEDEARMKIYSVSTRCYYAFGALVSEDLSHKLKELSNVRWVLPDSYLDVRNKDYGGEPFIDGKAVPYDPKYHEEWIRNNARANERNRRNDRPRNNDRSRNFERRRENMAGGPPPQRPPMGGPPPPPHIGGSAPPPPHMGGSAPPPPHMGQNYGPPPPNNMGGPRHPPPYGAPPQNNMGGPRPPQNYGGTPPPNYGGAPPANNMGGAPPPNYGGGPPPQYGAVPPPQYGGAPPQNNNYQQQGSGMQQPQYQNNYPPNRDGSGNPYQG

[3] = target: T3, MORF1, yeast two-hybrid fusion (Arabidopsis thaliana) (UniProt O49429)
T3 sequence: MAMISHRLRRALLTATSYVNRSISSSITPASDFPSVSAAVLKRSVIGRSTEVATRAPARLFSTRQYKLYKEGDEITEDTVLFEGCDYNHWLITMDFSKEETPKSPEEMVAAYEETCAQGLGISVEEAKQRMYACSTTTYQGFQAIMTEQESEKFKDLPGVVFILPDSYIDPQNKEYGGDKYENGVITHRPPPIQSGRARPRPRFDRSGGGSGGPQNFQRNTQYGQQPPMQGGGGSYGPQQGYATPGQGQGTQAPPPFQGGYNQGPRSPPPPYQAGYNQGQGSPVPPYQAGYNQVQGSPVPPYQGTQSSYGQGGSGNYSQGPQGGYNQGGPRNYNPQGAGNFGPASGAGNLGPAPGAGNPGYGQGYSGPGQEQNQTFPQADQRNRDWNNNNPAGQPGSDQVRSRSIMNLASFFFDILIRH

[4] = target: T4, MORF5, yeast two-hybrid fusion (Arabidopsis thaliana) (UniProt Q9C7Y2)
T4 sequence: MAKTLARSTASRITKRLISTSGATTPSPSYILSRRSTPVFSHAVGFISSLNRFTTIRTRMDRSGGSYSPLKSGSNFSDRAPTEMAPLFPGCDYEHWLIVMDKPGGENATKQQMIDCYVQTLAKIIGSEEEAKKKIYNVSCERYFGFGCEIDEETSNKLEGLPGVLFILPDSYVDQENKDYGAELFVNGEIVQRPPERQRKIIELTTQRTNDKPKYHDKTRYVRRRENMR

[5] = target: T5, MORF7, yeast two-hybrid fusion (Arabidopsis thaliana) (UniProt Q9CAH0)
T5 sequence: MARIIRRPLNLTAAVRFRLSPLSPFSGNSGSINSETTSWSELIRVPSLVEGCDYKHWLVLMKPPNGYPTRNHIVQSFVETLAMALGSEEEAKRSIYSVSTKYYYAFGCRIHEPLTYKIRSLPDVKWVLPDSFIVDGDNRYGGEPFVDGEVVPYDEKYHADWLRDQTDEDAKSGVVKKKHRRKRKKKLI

[6] = target: T6, MORF3, yeast two-hybrid fusion (Arabidopsis thaliana) (UniProt Q84JZ6)
T6 sequence: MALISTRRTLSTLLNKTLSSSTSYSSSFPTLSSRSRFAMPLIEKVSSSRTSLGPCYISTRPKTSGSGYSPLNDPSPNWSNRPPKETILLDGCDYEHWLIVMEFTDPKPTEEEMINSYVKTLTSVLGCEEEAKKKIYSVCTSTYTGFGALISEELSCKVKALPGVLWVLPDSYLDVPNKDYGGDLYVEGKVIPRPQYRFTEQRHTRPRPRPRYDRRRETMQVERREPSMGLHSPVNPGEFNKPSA

[7] = target: T7, MORF6, yeast two-hybrid fusion (Arabidopsis thaliana) (UniProt O82169)
T7 sequence: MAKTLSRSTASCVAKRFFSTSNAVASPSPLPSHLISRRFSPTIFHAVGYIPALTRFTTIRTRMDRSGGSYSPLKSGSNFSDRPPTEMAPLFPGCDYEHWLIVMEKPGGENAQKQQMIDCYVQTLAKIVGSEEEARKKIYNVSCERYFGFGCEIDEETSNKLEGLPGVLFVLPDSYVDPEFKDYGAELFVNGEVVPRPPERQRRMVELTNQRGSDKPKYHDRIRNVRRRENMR

- binding [1]: no binding
- binding [2]: binds
- binding [3]: no binding
- binding [4]: no binding
- binding [5]: no binding
- binding [6]: no binding
- binding [7]: no binding
Substance: mitochondrial transcription termination factor 27 (mTERF27), yeast two-hybrid fusion (Arabidopsis thaliana)

Results are given in words; binding and its absence hold for the method and conditions named. For some of these results: Binding can be weak; no strength is given. Where a sequence is shown, tags or fusion partners need not be part of it.
